According to patent US20100222311A1, “SOLID FORMULATIONS OF CRYSTALLINE COMPOUNDS” (PURDUE RESEARCH FOUNDATION, priority 2007, published 2010):
Some results were stated once for a whole list of compounds, not compound by compound.

Assay: X-Ray diffraction, crystallinity of extrudates
Assay type: physicochemical
Conditions: excipient extruded alone
Experimental: The crystal structure was characterized by X-Ray diffraction (LabX XRD6000, Shimadzu, Columbia, Md., USA). […] The powdered samples were placed in aluminum holders and measured in the reflection mode from 10 to 40° 2θ. The scanning rate was 5°/min using a sampling pitch of 0.02°. Each sample was measured in duplicate.

With `O=C(CO)[C@@H](O)[C@H](O)[C@H](O)CO` [fructose] the “time remained as amorphous solid after extrusion” value was “more than 24 h”.
